For test [1], the target named is T1, Myc-Wts (Drosophila) (UniProt Q9VA38).
T1 sequence: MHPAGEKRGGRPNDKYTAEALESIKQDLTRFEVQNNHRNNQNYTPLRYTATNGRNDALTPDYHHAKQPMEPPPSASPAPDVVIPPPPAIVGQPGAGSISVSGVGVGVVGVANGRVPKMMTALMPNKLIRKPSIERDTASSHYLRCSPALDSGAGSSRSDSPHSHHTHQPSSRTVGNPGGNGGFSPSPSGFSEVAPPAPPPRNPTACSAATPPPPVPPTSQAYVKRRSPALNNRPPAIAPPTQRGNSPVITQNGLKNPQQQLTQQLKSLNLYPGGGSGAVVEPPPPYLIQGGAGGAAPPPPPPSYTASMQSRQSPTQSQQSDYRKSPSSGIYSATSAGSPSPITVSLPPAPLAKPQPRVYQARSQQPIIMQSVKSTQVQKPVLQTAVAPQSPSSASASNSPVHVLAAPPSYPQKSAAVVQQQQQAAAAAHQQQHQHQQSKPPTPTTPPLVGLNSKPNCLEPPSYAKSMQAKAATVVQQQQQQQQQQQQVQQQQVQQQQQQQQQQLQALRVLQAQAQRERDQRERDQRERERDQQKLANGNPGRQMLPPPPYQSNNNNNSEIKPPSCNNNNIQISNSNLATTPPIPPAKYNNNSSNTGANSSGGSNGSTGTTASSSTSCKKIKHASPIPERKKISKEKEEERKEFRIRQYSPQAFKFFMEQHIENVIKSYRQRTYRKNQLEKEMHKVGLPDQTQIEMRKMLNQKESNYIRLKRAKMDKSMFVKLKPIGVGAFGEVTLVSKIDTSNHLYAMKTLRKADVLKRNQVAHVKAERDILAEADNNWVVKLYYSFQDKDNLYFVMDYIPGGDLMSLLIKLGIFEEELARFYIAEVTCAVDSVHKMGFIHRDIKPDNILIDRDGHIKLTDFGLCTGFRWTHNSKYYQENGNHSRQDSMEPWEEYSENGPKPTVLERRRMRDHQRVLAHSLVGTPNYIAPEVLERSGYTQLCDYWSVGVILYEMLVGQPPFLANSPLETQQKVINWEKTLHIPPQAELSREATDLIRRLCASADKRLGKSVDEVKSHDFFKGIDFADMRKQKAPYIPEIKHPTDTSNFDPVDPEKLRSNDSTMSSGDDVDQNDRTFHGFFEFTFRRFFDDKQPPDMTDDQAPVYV
Put plainly: co-IP; Drosophila S2 cells transfected with tagged constructs; harvested 48 h after transfection; IP with anti-Myc or anti-HA, then immunoblot.

Protein sequences, listed by entry. Tags and fused reporters are not part of them.
UniProt Q9V9J3: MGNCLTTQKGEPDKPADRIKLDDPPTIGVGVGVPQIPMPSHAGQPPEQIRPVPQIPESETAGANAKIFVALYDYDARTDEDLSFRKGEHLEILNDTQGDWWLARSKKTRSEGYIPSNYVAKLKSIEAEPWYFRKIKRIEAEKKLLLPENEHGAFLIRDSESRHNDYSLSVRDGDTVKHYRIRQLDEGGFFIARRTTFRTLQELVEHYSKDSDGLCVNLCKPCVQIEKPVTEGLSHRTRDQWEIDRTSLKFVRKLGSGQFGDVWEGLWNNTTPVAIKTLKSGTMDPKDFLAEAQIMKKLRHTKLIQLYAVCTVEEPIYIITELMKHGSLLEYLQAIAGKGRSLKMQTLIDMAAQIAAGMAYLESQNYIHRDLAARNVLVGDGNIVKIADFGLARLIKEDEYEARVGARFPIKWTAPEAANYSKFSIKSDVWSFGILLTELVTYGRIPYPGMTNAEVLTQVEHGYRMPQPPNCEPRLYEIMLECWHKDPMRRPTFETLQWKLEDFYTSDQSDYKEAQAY

Test [2] has as its target T1, Myc-Wts (Drosophila). Put plainly: co-IP; Drosophila S2 cells, with or without co-expressed Src42A; which protein was precipitated not given.
Another test deals with HA-Src42A (Drosophila) (UniProt Q9V9J3). Put plainly: co-IP; Drosophila S2 cells transfected with tagged constructs; harvested 48 h after transfection; IP with anti-Myc or anti-HA, then immunoblot.

No constants are given. Whether binding was seen depends on the method and setting. Binding seen in cells or lysates may run through a third protein. Some binding calls cover weakened binding; strength is not graded here. Tags and fused reporters may be left off the sequences shown.

With “HA-Src42A (from UniProt Q9V9J3 1-517) (enzyme)”, in the test with Myc-Wts (Drosophila) [1], the binding result is “binds”.

B1: Mob as a tumor suppressor (Mats) (protein, UniProt Q95RA8 1-219)
chain: MDFLFGSRSSKTFKPKKNIPEGTHQYDLMKHAAATLGSGNLRNAVALPDGEDLNEWVAVNTVDFFNQINMLYGTITEFCTEETCGIMSAGPKYEYHWADGLTVKKPIKCSAPKYIDYLMTWVQDQLDDETLFPSKIGVPFPKNFHSSAKTILKRLFRVYAHIYHQHFTEVVTLGEEAHLNTSFKHFIFFVQEFNLIERRELAPLQELIDKLTAKDERQI
For B1, the binding entry with Myc-Wts (Drosophila) [2] is “binds”.

B2: Myc-Wts (enzyme, UniProt Q9VA38 1-1105)
chain: T1 sequence
On to B2, for which the binding entry with HA-Src42A (Drosophila) is “binds”.
